Laboratory results reported in article doi:10.1101/2020.07.11.196790.
These are yes or no findings as the source states them, for the method shown. Binding seen in cells or lysates may run through a third protein. These calls come from enrichment with a bait or labelling near it, and not all partners need be listed.

By UniProt entry, the sequences of proteins in these tests, tags left out.
UniProt Q86WV6: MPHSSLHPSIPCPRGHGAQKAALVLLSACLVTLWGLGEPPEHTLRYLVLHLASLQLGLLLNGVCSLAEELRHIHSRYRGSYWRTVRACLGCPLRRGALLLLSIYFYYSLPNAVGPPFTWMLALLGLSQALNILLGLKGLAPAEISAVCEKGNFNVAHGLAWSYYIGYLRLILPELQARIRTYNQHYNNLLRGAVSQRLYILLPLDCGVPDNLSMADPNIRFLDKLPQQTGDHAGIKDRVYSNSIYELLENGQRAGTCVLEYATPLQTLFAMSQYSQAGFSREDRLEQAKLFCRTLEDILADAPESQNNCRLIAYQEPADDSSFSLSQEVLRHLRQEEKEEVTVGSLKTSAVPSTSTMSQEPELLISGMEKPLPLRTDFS
UniProt O96019: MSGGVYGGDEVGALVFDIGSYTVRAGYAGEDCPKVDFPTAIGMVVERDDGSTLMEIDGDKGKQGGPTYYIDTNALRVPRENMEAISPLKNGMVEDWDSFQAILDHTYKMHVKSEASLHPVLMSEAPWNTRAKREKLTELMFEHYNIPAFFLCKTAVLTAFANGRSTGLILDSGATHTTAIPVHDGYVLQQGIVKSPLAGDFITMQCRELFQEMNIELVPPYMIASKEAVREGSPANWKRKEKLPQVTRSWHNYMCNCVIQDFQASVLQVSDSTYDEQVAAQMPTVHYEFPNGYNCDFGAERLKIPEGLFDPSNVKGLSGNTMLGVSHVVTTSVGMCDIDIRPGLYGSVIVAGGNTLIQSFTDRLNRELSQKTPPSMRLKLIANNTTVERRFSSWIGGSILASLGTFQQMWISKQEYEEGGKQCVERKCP
UniProt P12956: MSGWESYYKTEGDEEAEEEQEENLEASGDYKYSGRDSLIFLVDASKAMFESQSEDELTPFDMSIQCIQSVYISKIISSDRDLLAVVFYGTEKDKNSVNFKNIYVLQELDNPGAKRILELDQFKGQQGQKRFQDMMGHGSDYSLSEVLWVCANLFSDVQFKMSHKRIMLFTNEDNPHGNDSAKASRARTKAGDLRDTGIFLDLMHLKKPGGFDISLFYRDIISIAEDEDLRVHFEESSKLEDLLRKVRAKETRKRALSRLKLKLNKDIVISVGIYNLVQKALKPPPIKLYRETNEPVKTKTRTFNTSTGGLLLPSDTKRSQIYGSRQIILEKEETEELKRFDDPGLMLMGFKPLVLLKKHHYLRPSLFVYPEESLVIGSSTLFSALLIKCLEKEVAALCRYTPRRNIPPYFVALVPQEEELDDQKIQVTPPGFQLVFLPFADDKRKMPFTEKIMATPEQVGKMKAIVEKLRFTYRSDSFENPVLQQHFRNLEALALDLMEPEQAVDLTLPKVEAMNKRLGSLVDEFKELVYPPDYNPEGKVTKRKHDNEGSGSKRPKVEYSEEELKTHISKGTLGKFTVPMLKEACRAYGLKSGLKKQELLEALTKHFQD
UniProt P13010: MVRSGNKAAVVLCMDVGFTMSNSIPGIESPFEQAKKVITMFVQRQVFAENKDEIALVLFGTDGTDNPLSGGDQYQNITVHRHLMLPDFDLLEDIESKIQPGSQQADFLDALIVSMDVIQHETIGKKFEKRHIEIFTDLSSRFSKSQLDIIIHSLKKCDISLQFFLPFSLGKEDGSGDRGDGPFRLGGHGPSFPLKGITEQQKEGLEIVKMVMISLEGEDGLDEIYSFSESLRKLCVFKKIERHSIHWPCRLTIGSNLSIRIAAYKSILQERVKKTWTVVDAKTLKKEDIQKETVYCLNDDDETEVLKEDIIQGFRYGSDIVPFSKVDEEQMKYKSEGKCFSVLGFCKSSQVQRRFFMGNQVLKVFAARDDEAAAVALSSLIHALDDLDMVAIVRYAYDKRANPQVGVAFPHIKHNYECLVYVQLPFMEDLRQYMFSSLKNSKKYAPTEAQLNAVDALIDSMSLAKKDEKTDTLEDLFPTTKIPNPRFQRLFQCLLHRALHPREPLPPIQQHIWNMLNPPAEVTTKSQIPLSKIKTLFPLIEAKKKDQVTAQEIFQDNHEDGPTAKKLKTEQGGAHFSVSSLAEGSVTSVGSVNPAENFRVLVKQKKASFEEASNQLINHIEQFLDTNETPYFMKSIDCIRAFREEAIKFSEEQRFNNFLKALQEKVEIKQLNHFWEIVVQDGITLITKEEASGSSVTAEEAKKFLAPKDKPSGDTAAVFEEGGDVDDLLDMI
UniProt Q9Y265: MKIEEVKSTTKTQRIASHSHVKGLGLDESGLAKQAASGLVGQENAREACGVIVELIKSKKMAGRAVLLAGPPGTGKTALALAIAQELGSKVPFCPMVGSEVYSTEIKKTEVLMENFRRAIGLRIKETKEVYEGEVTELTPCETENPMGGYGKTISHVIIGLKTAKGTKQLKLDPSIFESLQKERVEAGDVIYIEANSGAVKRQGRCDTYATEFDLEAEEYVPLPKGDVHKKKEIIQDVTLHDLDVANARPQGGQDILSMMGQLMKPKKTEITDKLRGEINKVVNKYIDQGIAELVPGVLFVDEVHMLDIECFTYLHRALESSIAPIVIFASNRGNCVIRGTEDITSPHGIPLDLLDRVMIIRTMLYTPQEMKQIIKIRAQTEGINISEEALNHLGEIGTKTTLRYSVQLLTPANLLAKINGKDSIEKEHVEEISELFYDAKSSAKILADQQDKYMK
UniProt O60264: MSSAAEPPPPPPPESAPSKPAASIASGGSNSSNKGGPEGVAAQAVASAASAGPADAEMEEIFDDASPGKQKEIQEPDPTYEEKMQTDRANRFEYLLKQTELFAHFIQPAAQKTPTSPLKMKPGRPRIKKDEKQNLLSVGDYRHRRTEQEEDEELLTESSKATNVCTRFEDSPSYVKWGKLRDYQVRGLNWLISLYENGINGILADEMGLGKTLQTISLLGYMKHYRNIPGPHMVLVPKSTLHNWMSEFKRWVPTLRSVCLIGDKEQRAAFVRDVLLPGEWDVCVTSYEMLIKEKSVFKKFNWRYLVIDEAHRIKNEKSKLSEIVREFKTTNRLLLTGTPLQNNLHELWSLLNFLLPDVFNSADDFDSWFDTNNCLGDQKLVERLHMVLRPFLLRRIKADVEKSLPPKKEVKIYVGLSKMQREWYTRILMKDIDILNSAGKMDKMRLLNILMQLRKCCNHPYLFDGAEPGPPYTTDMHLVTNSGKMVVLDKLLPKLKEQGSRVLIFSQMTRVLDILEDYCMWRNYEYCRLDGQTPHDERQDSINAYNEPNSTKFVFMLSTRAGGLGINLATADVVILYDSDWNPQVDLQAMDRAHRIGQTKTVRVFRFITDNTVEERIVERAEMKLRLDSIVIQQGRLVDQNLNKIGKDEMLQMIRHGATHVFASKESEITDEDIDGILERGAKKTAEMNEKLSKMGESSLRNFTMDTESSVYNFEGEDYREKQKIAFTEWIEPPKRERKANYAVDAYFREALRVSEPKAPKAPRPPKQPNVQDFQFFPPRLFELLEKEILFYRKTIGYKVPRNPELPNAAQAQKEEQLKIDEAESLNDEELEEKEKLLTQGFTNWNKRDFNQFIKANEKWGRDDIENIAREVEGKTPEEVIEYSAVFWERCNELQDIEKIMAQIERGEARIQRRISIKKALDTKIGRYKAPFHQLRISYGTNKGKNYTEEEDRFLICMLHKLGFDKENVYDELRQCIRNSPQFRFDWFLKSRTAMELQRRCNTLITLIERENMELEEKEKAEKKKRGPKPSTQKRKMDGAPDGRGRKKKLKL
UniProt Q9UQE7: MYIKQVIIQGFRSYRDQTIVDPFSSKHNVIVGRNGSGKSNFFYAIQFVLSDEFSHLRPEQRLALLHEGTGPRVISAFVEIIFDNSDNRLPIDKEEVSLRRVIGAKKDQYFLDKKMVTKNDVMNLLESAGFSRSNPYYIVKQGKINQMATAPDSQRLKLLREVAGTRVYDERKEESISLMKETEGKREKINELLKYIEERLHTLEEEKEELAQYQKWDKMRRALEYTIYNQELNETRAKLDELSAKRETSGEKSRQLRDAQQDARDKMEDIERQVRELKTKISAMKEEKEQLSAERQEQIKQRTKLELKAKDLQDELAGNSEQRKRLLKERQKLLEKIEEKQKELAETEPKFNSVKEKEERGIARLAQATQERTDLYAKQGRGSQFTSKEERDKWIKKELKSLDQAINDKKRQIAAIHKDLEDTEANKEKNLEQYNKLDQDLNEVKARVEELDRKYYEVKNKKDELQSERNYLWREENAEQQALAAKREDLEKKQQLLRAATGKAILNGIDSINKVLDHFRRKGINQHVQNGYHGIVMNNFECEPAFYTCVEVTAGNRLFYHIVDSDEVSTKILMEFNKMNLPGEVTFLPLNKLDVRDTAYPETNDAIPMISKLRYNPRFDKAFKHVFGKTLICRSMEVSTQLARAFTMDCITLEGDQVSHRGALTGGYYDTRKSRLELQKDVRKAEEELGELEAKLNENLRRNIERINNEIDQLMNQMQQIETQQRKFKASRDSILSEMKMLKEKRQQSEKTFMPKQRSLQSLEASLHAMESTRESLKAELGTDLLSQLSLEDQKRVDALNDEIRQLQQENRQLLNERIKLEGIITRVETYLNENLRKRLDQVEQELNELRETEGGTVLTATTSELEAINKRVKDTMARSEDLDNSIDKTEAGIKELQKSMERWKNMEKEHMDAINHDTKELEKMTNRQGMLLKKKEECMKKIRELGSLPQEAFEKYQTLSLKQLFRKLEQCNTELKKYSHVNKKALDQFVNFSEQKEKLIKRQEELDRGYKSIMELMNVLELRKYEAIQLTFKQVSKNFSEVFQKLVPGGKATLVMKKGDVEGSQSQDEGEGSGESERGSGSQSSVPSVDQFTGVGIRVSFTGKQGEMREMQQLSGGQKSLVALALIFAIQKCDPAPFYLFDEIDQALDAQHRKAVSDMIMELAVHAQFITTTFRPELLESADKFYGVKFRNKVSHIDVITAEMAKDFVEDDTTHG
UniProt Q9Y5B9: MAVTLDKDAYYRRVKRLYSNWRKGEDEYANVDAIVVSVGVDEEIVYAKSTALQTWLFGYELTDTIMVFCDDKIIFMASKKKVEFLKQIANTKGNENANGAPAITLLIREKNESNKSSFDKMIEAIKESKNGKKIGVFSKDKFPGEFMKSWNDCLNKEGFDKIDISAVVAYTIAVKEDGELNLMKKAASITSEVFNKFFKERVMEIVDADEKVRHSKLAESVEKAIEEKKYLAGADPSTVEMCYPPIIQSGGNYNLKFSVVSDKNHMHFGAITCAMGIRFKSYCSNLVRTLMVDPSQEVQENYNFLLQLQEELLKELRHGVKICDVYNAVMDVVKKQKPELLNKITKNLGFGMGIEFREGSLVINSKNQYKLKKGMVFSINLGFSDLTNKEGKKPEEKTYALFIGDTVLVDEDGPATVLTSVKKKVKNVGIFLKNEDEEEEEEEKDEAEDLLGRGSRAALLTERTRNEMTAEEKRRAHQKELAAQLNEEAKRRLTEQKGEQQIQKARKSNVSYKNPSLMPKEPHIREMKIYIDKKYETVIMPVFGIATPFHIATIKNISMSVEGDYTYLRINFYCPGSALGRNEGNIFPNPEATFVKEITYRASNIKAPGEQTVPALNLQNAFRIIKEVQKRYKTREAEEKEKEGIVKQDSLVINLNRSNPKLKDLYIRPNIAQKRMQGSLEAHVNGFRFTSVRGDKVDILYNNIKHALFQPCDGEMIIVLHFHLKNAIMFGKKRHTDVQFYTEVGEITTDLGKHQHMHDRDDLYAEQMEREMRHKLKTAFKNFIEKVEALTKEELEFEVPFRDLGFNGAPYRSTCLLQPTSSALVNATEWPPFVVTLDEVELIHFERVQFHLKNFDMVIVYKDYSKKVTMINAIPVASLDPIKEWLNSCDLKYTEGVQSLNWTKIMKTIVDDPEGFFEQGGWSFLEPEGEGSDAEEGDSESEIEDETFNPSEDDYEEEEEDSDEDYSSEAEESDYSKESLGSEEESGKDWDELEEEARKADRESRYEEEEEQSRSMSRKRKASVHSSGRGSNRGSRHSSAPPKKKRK

The substances below were run against Flag-STING-HA (Stimulator of Interferon Genes) (human) (UniProt Q86WV6) (assay: affinity purification with mass spectrometry).

binding	Substance
binds	ACTL6A (from UniProt O96019 1-429)
binds	DNA-PK catalytic subunit (from UniProt P78527 1-4128)
binds	Ku70 (from UniProt P12956 1-609)
binds	Ku80 (from UniProt P13010 1-732)
binds	RUVBL1 (from UniProt Q9Y265 1-456)
binds	SMARCA5 (from UniProt O60264 1-1052)
binds	SMC3 (from UniProt Q9UQE7 1-1217)
binds	SUPT16H (from UniProt Q9Y5B9 1-1047)
